# Source: article PMC12431657, “Discovery and mechanistic insights of dibenzoylmethane as a broad spectrum inhibitor of coronavirus” (PLOS Pathogens, 2025)
# Structures can show the parent of a compound that is named as a salt. Screen size: about 3,300 compounds; about 60 (2%) showed an effect of 50% or more. The list shows a part of the results.
# Test system: HCoV-OC43
# Design: species or system RD; HTS, protection from HCoV-OC43 induced cell death, luminescent cell viability (CellCounting-Lite 2.0), inhibition rate
# Details: 24 h post infection, 1 h compound pre-incubation; 10 µM; inhibitor
row,Compound,OC43 Inhibition rate
1,CC[C@]1(O)C[C@@H]2CN(CCc3c([nH]c4ccccc34)[C@@](C(=O)OC)(c3cc4c(cc3OC)N(C)[C@H]3[C@@](O)(C(=O)OC)[C@H](OC(C)=O)[C@]5(CC)C=CCN6CC[C@]43[C@@H]65)C2)C1 [Vinblastine (sulfate)],21.5%
2,C[C@H]1CC[C@@H](C(C)(C)O)CC2=C1CC[C@@H]2C [Guaiol],1%
3,CC1=CC[C@@]23C[C@@H]1C(C)(C)[C@@H]2CC[C@H]3C [(-)-Cedrene],0.1%
4,CC(=O)Nc1ccc(S(=O)(=O)O)c2cc(S(=O)(=O)O)c(N=Nc3ccccc3)c(O)c12 [Lignin],0%
5,CCCCC(O)C(=O)O (stereo not shown) [2-Hydroxyhexanoic acid],1.1%
6,"CC(C)(CC(=O)O)C(=O)O [2,2-Dimethylsuccinic acid]",-3.4%
7,O=C(O)CCCCCCCCCCC(=O)O [Dodecanedioic acid],-0.8%
8,COc1ccc(-c2oc3c4c(cc(O)c3c(=O)c2O)OC(C)(C)CC4)cc1 [β-Anhydroicaritin],0.9%
9,CC1=CC[C@H]2C[C@@H]1C2(C)C [(-)-α-Pinene],-0.6%
10,CCCCCCCC/C=C\CCCCCCCC(=O)OC [Methyl oleate],0%
11,"N[C@H](C=O)[C@@H](O)[C@H](O)[C@H](O)CO [(2S,3R,4S,5R)-2-Amino-3,4,5,6-tetrahydroxyhexanal hydrochloride]",-1.6%
12,CC(C)CCC[C@@H](C)[C@H]1CC[C@H]2[C@@H]3CC=C4C[C@@H](O)CC[C@]4(C)[C@H]3CC[C@]12C [Cholesterol],-3.4%
13,Nc1ccn([C@@H]2O[C@H](CO)[C@@H](O)[C@H]2O)c(=O)n1 [Cytidine],0%
14,O=C(/C=C/c1ccccc1)OCc1ccccc1 [Benzyl cinnamate],2%
15,N[C@@H](Cc1ccc(O)c(Cl)c1)C(=O)O [3-Chloro-L-tyrosine],0.8%
16,CC1(C)O[C@H]2CC(=O)OC[C@]23[C@H]2CC[C@@]4(C)[C@H](c5ccoc5)OC(=O)[C@H]5O[C@]54[C@]2(C)[C@@H](O)C(=O)[C@@H]13 [Rutaevin],-0.6%
17,COc1cc(O)c2c(c1)O[C@H](c1ccc(O)cc1)CC2=O [Sakuranetin],0.3%
18,COc1cc(O)c2c(=O)c(-c3ccc(O)cc3)coc2c1 [Prunetin],0.3%
19,C/C=C(/C)C(=O)O[C@H]1[C@H](O)[C@]2(COC(C)=O)[C@H](O)C[C@]3(C)C(=CC[C@@H]4[C@@]5(C)CC[C@H](O[C@@H]6O[C@H](C(=O)O)[C@@H](O[C@@H]7O[C@H](CO)[C@@H](O)[C@H](O)[C@H]7O)[C@H](O)[C@H]6O[C@@H]6O[C@H](CO)[C@@H](O)[C@H](O)[C@H]6O)[C@](C)(CO)[C@@H]5CC[C@]43C)[C@@H]2CC1(C)C [Isoescin IB],-1.3%

row,Compound,OC43 Inhibition rate
1,COc1cc(/C=C/CO)cc(OC)c1O[C@@H]1O[C@H](CO)[C@@H](O)[C@H](O)[C@H]1O [Syringin],-0.5%
2,O=C(O)CC(O)(CC(=O)OCc1ccc(O[C@@H]2O[C@H](CO)[C@@H](O)[C@H](O)[C@H]2O)cc1)C(=O)OCc1ccc(O[C@@H]2O[C@H](CO)[C@@H](O)[C@H](O)[C@H]2O)cc1 (stereo partly shown) [Parishin B],-3.2%
3,CCCCCCCCCCCCCCCCO [1-Hexadecanol],-0.8%
4,"C[C@H](CCC(=O)O)[C@H]1CC[C@H]2[C@@H]3CC[C@@H]4C[C@H](O)CC[C@]4(C)[C@H]3C[C@@H](O)[C@]12C [3α,12β-Dihydroxycholanoic acid]",0.4%
5,O=C(O)c1ccnc2ccccc12 [NSC 13138],-0.7%
6,"NCC(N)C(=O)O (stereo not shown) [2,3-Diaminopropanoic acid hydrochloride]",-1.2%
7,CCCCC[C@H](CC(=O)NO)C(=O)N[C@H](C(=O)N1CCC[C@H]1CO)C(C)C [Actinonin],-0.9%
8,OC[C@H]1O[C@@](CO)(OC[C@@]2(OC[C@@]3(OC[C@@]4(O[C@H]5O[C@H](CO)[C@@H](O)[C@H](O)[C@H]5O)O[C@H](CO)[C@@H](O)[C@@H]4O)O[C@H](CO)[C@@H](O)[C@@H]3O)O[C@H](CO)[C@@H](O)[C@@H]2O)[C@@H](O)[C@@H]1O [1F-Fructofuranosylnystose],-1.2%
9,CC1(C)C=Cc2c(-c3c4c(c5ccccc5c3O)OC(C)(C)C=C4)c(O)c3ccccc3c2O1 [Tectol],6.7%
10,O=c1c(O)c(-c2ccccc2)oc2cc(O)cc(O)c12 [Galangin],13.3%
11,O=C(O)Cc1cccnc1 [3-Pyridineacetic acid],-1%
12,O=C1C[C@@H](c2ccc(O[C@@H]3O[C@H](CO)[C@@H](O)[C@H](O)[C@H]3O)cc2)Oc2cc(O[C@@H]3OC[C@](O)(CO)[C@H]3O)ccc21 [Liguiritigenin-7-O-D-apiosyl-4'-O-D-glucoside],1.2%
13,CC1(C)CC[C@]2(C(=O)O[C@@H]3O[C@H](CO)[C@@H](O)[C@H](O)[C@H]3O)CC[C@]3(C)C(=CC[C@@H]4[C@@]5(C)CC[C@H](O[C@@H]6O[C@H](C(=O)O)[C@@H](O)[C@H](O[C@@H]7OC[C@@H](O)[C@H](O)[C@H]7O)[C@H]6O)C(C)(C)[C@@H]5CC[C@]43C)[C@@H]2C1 [Momordin IIc],-0.2%
14,CC(=O)CC[C@@H](C)O[C@@H]1O[C@@H](C)[C@H](O)C[C@H]1O [Ascr#2],1.2%
15,CC(=O)c1ccc2c(c1)C=CC(C)(C)O2 [Demethoxyencecalin],0.6%
16,Nc1nc2c(nc(O)n2[C@@H]2O[C@H](CO)[C@@H](O)[C@H]2O)c(=O)[nH]1 [8-Hydroxyguanosine],-0.9%
17,CCCCC[C@H](O)CC(=O)CCc1ccc(O)c(OC)c1 [[6]-Gingerol],-0.2%
18,O=C(O)C[C@@H]1C(=O)O[C@H]2[C@@H]3OC(=O)c4cc(O)c(O)c(O)c4-c4c(cc(O)c(O)c4O)C(=O)OC[C@H]2O[C@@H](OC(=O)c2cc(O)c(O)c(O)c2)[C@@H]3OC(=O)c2cc(O)c(O)c3c2[C@H]1[C@H](O)C(=O)O3 [Chebulagic acid],1.9%

# Already shown: two of the compounds above.
row,Compound,OC43 Inhibition rate
18,COc1cc(O)c2c(=O)c(-c3ccc(O)cc3)coc2c1 [Prunetin],0.3%
19,C/C=C(/C)C(=O)O[C@H]1[C@H](O)[C@]2(COC(C)=O)[C@H](O)C[C@]3(C)C(=CC[C@@H]4[C@@]5(C)CC[C@H](O[C@@H]6O[C@H](C(=O)O)[C@@H](O[C@@H]7O[C@H](CO)[C@@H](O)[C@H](O)[C@H]7O)[C@H](O)[C@H]6O[C@@H]6O[C@H](CO)[C@@H](O)[C@H](O)[C@H]6O)[C@](C)(CO)[C@@H]5CC[C@]43C)[C@@H]2CC1(C)C [Isoescin IB],-1.3%
